Earlier results on one compound are cited in patent US20090270496A1, “ANTIFUNGAL COMPOUNDS” (priority 2007, published 2009).

This data set relates to Gi protein in HL-60 membranes. The note with it: read-out: EC50, increase of high affinity GTP hydrolysis, Hageluken et al., 1995; cited from earlier work.

Take `CCCCc1oc2ccccc2c1C(=O)c1cc(I)c(OCCN(CC)CC)c(I)c1` [Amiodarone, amiodarone]: the 50% effective concentration (EC50) (in general, the concentration at which the effect is half-maximal) is 7.5 µM.
